Assay: DWFPIA of milk samples (LOD, detectable range, recovery)
Conditions: for LOD: milk, mean of 20 blank controls plus three SD
[1] = blank milk spiked at 20 μg L^−1, n = 3

| SMILES | Recovery (blank milk spiked at 5 μg L^−1, n = 3) [%] | Recovery [1] [%] | Recovery (blank milk spiked at 35 μg L^−1, n = 3) [%] | LOD [µg/L] | Recovery (blank milk spiked at 50 μg L^−1, n = 3) [%] | Recovery (blank milk spiked at 100 μg L^−1, n = 3) [%] |
| --- | --- | --- | --- | --- | --- | --- |
| COc1cc(Cc2cnc(N)nc2N)cc(OC)c1OC [TMP, Trimethoprim] | 78.6 | 103.6 | 90.5 | 0.7 |  |  |
| Cc1cc(C)nc(NS(=O)(=O)c2ccc(N)cc2)n1 [SMZ, Sulfamethazine] |  | 81.7 |  | 3.3 | 97.2 | 84.5 |

— publication PMC9688798, “Dual-Wavelength Fluorescence Polarization Immunoassay for Simultaneous Detection of Sulfonamides and Antibacterial Synergists in Milk” (Biosensors, 2022)
